Earlier results as cited in US20090318500A1, “4-(2, 6-Dichloro-benzoylamino)-1H-pyrazole-3-carboxylic acid (1-methanesulphonyl-piperidin-4-yl)-amide for the Treatment of Cancer” (Astex Therapeutics limited, priority 2006, published 2009).
For at least one compound, name, drawing or mass did not settle the structure.

Test system: symptomatic CLL patients
Details: initial therapy; cited from earlier work

SMILES: Nc1nc(F)nc2c1ncn2[C@@H]1O[C@H](CO)[C@@H](O)[C@@H]1O [fludarabine]
- Rate of complete responses: 27%
